Laboratory results published in US20260117228A1.
No constants are given. Whether binding was seen depends on the method and setting. In cells and extracts the contact can be indirect. Some entries that bind do so weakly or less than the wild type. Sequences can lack the tags named with a protein.

Legend:
[1] = target: T1, CCDC39-HA (Coiled-Coil Domain Containing 39, tagged at its C-terminus with HA) (UniProt Q9UFE4); experiment: co-immunoprecipitation: HA magnetic beads on HEK293T lysate, anti-Flag western blot
T1 sequence (looked up): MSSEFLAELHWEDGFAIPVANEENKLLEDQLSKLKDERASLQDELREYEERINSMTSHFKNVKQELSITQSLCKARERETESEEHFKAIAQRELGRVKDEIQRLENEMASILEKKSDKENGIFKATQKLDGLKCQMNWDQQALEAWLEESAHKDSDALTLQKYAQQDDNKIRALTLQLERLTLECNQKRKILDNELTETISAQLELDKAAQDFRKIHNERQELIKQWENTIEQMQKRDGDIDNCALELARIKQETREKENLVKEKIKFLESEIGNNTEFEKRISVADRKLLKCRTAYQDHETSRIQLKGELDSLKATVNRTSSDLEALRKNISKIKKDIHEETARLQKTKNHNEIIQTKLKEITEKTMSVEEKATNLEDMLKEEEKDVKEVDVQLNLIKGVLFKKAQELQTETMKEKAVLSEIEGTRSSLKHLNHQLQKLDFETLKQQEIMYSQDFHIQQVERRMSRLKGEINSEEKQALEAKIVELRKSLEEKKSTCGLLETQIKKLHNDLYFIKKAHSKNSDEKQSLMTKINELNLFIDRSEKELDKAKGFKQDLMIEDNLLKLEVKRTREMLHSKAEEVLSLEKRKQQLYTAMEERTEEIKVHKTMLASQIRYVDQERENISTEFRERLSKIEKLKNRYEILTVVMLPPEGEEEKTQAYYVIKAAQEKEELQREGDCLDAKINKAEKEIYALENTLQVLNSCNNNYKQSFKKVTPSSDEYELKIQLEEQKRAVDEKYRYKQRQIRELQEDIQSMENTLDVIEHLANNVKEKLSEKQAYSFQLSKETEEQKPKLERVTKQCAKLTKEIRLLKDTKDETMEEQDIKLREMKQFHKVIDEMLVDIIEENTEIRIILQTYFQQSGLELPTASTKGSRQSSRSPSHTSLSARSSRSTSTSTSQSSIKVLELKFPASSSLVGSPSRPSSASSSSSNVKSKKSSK

[2] = target: T1, CCDC39-HA (Coiled-Coil Domain Containing 39, tagged at its C-terminus with HA); experiment: co-immunoprecipitation with CCDC39-HA in HEK293 cells, western blot (figure legend)

- binding [1]: binds
- binding [2]: binds
B1: CCDC40^WT-Flag (wild type coiled-coil domain containing 40, tagged at its C-terminus with Flag) (protein, UniProt Q4G0X9 1-1142, looked up, not shown: small tags and cut ends)
chain: MAEPGGAAGRSHPEDGSASEGEKEGNNESHMVSPPEKDDGQKGEEAVGSTEHPEEVTTQAEAAIEEGEVETEGEAAVEGEEEAVSYGDAESEEEYYYTETSSPEGQISAADTTYPYFSPPQELPGEEAYDSVSGEAGLQGFQQEATGPPESRERRVTSPEPSHGVLGPSEQMGQVTSGPAVGRLTGSTEEPQGQVLPMGVQHRFRLSHGSDIESSDLEEFVSQEPVIPPGVPDAHPREGDLPVFQDQIQQPSTEEGAMAERVESEGSDEEAEDEGSQLVVLDPDHPLMVRFQAALKNYLNRQIEKLKLDLQELVVATKQSRAQRQELGVNLYEVQQHLVHLQKLLEKSHDRHAMASSERRQKEEELQAARALYTKTCAAANEERKKLAALQTEMENLALHLFYMQNIDQDMRDDIRVMTQVVKKAETERIRAEIEKKKQDLYVDQLTTRAQQLEEDIALFEAQYLAQAEDTRILRKAVSEACTEIDAISVEKRRIMQQWASSLVGMKHRDEAHRAVLEALRGCQHQAKSTDGEIEAYKKSIMKEEEKNEKLASILNRTETEATLLQKLTTQCLTKQVALQSQFNTYRLTLQDTEDALSQDQLEQMILTEELQAIRQAIQGELELRRKTDAAIREKLQEHMTSNKTTKYFNQLILRLQKEKTNMMTHLSKINGDIAQTTLDITHTSSRLDAHQKTLVELDQDVKKVNELITNSQSEISRRTILIERKQGLINFLNKQLERMVSELGGEEVGPLELEIKRLSKLIDEHDGKAVQAQVTWLRLQQEMVKVTQEQEEQLASLDASKKELHIMEQKKLRVESKIEQEKKEQKEIEHHMKDLDNDLKKLNMLMNKNRCSSEELEQNNRVTENEFVRSLKASERETIKMQDKLNQLSEEKATLLNQLVEAEHQIMLWEKKIQLAKEMRSSVDSEIGQTEIRAMKGEIHRMKVRLGQLLKQQEKMIRAMELAVARRETVTTQAEGQRKMDRKALTRTDFHHKQLELRRKIRDVRKATDECTKTVLELEETQRNVSSSLLEKQEKLSVIQADFDTLEADLTRLGALKRQNLSEIVALQTRLKHLQAVKEGRYVFLFRSKQSLVLERQRLDKRLALIATILDRVRDEYPQFQEALHKVSQMIANKLESPGPS
